Measurements: the supplement of paper PMC12819154, “High-throughput peptide-centric local stability assay extends protein–ligand identification to membrane proteins, tissues and bacteria” (Nature Structural & Molecular Biology, 2025)
The list shows a part of the results. Most entries show no effect beyond the scatter of the controls.

By UniProt entry, the sequences of proteins in these tests, tags left out. Where a name states a change or a piece, a line headed by the entry shows the natural chain unless it says otherwise.
UniProt Q9GZQ3, whole entry: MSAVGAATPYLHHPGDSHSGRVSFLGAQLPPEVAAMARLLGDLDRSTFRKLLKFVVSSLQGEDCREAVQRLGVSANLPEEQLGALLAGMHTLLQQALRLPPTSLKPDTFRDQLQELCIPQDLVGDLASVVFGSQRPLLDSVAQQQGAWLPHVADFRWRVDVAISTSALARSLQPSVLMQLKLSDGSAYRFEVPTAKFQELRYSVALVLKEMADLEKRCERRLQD
UniProt Q9BWJ5: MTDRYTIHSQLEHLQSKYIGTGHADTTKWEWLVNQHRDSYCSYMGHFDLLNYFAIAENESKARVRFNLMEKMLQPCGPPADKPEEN
UniProt Q9H1H9: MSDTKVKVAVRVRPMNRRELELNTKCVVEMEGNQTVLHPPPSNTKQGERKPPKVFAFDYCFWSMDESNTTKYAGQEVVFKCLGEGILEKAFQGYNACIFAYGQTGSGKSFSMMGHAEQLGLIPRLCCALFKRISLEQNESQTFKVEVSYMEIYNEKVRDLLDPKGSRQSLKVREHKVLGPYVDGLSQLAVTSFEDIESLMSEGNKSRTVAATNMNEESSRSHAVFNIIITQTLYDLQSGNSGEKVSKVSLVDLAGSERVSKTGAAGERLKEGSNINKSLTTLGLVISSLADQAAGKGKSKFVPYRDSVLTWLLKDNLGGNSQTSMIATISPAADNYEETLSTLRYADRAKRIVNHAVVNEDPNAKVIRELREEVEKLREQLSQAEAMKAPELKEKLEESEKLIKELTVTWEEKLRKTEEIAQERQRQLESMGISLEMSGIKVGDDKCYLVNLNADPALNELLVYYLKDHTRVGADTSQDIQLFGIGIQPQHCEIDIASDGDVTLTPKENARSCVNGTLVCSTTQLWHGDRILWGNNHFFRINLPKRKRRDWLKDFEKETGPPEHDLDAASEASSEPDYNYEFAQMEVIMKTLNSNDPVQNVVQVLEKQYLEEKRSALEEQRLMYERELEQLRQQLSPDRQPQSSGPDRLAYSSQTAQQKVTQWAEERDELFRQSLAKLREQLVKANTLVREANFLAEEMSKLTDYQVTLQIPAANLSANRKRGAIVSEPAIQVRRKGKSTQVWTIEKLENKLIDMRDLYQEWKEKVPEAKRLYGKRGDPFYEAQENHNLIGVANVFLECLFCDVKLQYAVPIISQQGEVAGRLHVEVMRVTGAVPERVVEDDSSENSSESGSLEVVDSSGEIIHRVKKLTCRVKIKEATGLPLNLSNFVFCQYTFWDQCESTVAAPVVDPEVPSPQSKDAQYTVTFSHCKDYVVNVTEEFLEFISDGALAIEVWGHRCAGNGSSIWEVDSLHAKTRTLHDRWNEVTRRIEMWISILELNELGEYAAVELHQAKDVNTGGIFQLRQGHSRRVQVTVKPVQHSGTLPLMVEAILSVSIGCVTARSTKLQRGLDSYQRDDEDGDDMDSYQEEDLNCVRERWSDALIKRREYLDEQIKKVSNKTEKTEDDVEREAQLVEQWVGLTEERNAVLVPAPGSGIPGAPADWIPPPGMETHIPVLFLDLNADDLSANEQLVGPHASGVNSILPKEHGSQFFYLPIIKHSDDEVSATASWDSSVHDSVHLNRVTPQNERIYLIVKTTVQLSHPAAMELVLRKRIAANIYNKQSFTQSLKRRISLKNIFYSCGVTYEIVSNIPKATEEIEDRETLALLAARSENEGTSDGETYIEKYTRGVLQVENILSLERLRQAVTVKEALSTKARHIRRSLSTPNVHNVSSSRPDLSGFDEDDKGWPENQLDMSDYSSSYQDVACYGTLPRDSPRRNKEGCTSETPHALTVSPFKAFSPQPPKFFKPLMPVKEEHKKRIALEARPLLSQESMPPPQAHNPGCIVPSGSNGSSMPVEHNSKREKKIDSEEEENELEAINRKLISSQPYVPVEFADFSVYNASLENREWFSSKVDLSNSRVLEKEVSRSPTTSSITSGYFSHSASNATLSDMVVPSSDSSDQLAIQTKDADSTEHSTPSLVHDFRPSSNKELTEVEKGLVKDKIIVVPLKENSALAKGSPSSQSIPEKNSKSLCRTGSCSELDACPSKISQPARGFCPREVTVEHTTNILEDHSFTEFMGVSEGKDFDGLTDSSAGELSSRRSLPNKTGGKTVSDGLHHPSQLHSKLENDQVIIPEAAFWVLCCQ
UniProt Q9H2P9: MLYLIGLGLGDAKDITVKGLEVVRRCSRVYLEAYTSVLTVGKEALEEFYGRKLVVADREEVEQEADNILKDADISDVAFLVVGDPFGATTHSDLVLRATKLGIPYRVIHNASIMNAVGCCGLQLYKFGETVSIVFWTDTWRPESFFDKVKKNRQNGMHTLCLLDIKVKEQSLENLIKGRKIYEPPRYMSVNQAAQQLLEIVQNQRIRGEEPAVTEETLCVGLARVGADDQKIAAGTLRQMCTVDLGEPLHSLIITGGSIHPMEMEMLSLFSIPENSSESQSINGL
UniProt Q9H0A0: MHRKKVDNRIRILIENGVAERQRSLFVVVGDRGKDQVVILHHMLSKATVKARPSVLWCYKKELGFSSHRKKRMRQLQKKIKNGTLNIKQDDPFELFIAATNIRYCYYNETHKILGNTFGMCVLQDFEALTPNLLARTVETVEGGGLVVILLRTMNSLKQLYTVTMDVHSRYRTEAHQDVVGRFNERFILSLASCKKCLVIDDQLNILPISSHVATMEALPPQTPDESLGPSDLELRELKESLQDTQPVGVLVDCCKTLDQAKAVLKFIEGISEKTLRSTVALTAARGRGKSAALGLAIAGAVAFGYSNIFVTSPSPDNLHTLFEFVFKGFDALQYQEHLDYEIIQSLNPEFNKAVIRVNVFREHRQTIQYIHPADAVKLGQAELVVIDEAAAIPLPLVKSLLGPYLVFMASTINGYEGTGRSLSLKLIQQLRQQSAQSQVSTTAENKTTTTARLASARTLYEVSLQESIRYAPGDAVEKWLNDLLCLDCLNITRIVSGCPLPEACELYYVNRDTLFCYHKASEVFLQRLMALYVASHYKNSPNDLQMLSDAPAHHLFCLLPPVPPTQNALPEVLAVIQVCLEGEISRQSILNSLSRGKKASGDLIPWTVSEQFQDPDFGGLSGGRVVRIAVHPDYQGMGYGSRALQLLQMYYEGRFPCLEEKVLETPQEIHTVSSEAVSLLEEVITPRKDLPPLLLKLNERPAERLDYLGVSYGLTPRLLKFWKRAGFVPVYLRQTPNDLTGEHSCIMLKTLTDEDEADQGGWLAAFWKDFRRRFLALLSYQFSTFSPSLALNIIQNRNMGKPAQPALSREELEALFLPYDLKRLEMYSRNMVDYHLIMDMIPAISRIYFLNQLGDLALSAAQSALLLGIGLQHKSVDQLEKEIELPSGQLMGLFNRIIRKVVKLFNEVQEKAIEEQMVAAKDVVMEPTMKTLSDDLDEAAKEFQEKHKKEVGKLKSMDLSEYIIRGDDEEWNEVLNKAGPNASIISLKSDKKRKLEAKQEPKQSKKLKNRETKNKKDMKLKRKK
UniProt Q9BY27: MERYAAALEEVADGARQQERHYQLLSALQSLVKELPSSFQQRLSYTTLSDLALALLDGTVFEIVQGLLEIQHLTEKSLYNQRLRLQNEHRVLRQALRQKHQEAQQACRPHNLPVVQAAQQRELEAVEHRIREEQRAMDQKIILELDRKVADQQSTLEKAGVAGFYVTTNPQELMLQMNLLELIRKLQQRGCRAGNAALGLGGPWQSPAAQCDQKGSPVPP
UniProt Q9H0U4: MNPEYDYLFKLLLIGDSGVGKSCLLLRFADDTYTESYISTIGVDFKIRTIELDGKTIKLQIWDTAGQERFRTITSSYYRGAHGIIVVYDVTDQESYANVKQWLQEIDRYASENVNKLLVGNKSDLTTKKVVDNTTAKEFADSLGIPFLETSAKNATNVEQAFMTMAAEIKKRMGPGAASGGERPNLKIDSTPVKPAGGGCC
UniProt Q9BWH2: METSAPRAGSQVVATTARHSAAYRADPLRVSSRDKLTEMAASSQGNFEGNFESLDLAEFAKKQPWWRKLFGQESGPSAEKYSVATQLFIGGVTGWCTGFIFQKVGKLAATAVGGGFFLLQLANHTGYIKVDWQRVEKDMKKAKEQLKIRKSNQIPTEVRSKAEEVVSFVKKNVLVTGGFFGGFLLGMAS
UniProt Q9BYM8: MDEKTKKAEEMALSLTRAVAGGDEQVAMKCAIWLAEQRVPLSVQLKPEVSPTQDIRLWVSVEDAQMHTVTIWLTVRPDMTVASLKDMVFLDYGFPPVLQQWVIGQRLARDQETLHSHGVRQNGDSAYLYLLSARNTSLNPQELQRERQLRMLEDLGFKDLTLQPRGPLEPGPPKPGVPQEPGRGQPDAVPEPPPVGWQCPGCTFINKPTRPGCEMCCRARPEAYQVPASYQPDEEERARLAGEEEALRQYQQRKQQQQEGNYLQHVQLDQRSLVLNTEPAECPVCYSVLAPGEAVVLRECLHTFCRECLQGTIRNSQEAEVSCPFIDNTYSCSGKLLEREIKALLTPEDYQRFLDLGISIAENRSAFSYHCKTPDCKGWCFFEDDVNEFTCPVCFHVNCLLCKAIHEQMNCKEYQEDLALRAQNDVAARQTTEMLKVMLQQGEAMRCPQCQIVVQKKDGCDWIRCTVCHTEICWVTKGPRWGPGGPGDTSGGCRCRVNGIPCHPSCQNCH
UniProt Q9BXP5: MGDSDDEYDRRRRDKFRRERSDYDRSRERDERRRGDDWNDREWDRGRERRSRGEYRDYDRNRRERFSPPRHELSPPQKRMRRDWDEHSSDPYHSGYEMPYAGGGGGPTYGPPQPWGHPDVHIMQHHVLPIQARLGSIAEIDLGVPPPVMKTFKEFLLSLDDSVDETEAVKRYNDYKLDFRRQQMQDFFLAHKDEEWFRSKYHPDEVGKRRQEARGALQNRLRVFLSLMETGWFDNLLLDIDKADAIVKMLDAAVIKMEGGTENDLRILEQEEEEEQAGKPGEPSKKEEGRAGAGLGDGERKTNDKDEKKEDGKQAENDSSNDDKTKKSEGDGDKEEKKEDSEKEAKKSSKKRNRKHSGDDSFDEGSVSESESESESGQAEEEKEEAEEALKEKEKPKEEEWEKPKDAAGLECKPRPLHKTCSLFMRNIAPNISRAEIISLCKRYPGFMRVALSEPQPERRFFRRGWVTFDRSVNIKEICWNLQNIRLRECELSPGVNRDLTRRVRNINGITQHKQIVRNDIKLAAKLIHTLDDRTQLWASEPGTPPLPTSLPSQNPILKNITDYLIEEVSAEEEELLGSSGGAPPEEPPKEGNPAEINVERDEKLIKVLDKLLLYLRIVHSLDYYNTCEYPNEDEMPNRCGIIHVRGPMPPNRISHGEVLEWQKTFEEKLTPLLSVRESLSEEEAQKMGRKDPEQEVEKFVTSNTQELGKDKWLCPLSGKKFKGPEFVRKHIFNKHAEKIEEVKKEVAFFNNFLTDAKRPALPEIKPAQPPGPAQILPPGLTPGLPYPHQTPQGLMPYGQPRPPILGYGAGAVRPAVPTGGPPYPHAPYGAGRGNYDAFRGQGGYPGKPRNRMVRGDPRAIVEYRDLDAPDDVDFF

compound: CN[C@@H]1C[C@H]2O[C@@](C)([C@@H]1OC)n1c3ccccc3c3c4c(c5c6ccccc6n2c5c31)C(=O)NC4 [staurosporine]; assay: log2 fold change of tryptic peptide abundance, ligand vs vehicle (limited proteolysis) (log2 ratio); higher = more trypsin-susceptible (destabilized); conditions: ligand concentration: 20 uM; sample: K562 cleared lysate; digestion: 4 min, 22 C (HT-PELSA RT4min, Orbitrap Astral)

Target	log2 fold change
COMMD5 (peptide sequence: FVVSSLQGEDCREAVQR, peptide start residue: 54) (UniProt Q9GZQ3)	-0.305
SF3B5 (peptide sequence: YTIHSQLEHLQSK, peptide start residue: 5) (UniProt Q9BWJ5)	-0.184
KIF13A (peptide sequence: TLNSNDPVQNVVQVLEK, peptide start residue: 591) (UniProt Q9H1H9)	-0.456
DPH5 (peptide sequence: VKEQSLENLIK, peptide start residue: 167) (UniProt Q9H2P9)	-0.236
NAT10 (peptide sequence: ARPSVLWCYK, peptide start residue: 51) (UniProt Q9H0A0)	0.787
UniProt Q9BY27 (peptide sequence: HQEAQQACRPHNLPVVQAAQQR, peptide start residue: 100)	0.551
RAB1B (peptide sequence: MGPGAASGGERPNLK, peptide start residue: 173) (UniProt Q9H0U4)	0.562
FUNDC2 (peptide sequence: AGSQVVATTAR, peptide start residue: 8) (UniProt Q9BWH2)	-0.158
RBCK1 (peptide sequence: CAIWLAEQR, peptide start residue: 30) (UniProt Q9BYM8)	-0.563
UniProt Q9BXP5 (peptide sequence: HAEKIEEVKK, peptide start residue: 736)	0.346
